Assay results published in the supplement of paper PMC9254222.
Where a name gives a salt, the structure may show the parent alone. The full ranking holds about 1,100 compounds; the median of “Wnt reporter firefly/Renilla luciferase ratio relative to plate median” is about 1.1, and the highest 2% start at about 1.6. The list shows a part of the results, in another mix than the full data.

System: HEK293T (UBE3A T485A transfected, BAR Wnt reporter)
Assay: Wnt reporter firefly/Renilla luciferase ratio relative to plate median (fold (linear ratio)); higher = more Wnt/beta-catenin reporter activation
Details: 24 h
How it was run: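 Each value averages four biological replicates in HEK293T cells grown at 4500 cells/well in DMEM with 10% FBS at 37°C and 5% CO2. The cells were transfected with a BAR firefly luciferase Wnt reporter, TK-Renilla and an expression plasmid, then four hours later robotically treated with the chemicals at 0.01–100 uM for 24 h. Dual-Glo luciferase signals were median-centred per plate, with the firefly/Renilla ratio reported as Wnt activity and raw Renilla as cell health.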

Compound	Wnt reporter firefly/Renilla luciferase ratio (concentration: 0.1 uM)	Wnt reporter firefly/Renilla luciferase ratio (concentration: 1 uM)	Wnt reporter firefly/Renilla luciferase ratio (concentration: 10 uM)	Wnt reporter firefly/Renilla luciferase ratio (concentration: 100 uM)	Wnt reporter firefly/Renilla luciferase ratio (concentration: 0.01 uM)
CCC(=O)O[C@H]1CC[C@H]2[C@@H]3CCC4=CC(=O)CC[C@]4(C)[C@H]3CC[C@]12C [Testosterone propionate]	1.18	1.15	1.14	0.787	
N#CCCCCC#N [Hexanedinitrile]	1.07	1.58	1.13	0.979	
CCCC1COC(Cn2cncn2)(c2ccc(Cl)cc2Cl)O1 (centres undefined) [Propiconazole]	1.03	1.17	0.78		0.957
O=S1OCC2C(CO1)C1(Cl)C(Cl)=C(Cl)C2(Cl)C1(Cl)Cl (centres undefined) [Endosulfan]	1.05	0.98	0.946	0.756	0.727
C#CCN1C(=O)COc2cc(F)c(N3C(=O)C4=C(CCCC4)C3=O)cc21 [Flumioxazin]	0.916	1.25	1.1	0.717	0.966
COS(=O)(=O)OC [Dimethyl sulfate]	1.04	0.948	1.09	0.389	
CCOc1nc(F)cc2nc(S(=O)(=O)Nc3c(Cl)cccc3Cl)nn12 [Diclosulam]	1.38	0.954	1.05	0.892	1.4
COc1cccc(C(=O)NN(C(=O)c2cc(C)cc(C)c2)C(C)(C)C)c1C [Methoxyfenozide]	1.11	1.06	1.04	0.281	0.986
OCCCl [2-Chloroethanol]	1.16	1.06	0.986	1.4	
O=C(O)C(F)(F)C(F)(F)C(F)(F)C(F)(F)C(F)(F)C(F)(F)F [Perfluoroheptanoic acid]	0.82	1.02	0.932	0.483	
CC1=C(C(=O)Nc2ccccc2)SCCO1 [Carboxin]	1.12	0.984	1.53	0.587	1.29
CCNc1nc(NC(C)C)nc(SC)n1 [Ametryn]	0.725	0.813	1.29	0.791	0.686

As entered above:
Value of `C#CCN1C(=O)COc2cc(F)c(N3C(=O)C4=C(CCCC4)C3=O)cc21` [Flumioxazin] under Wnt reporter firefly/Renilla luciferase ratio (concentration: 10 uM): 1.1
Value of `CCCC1COC(Cn2cncn2)(c2ccc(Cl)cc2Cl)O1` (centres undefined) [Propiconazole] under Wnt reporter firefly/Renilla luciferase ratio (concentration: 0.1 uM): 1.03
